According to article doi:10.64898/2025.12.08.693079:
These are yes or no findings as the source states them, for the method shown. In cells and extracts the contact can be indirect. These calls come from enrichment with a bait or labelling near it, and not all partners need be listed.

The chains behind the UniProt entries cited, without tags or fusion partners.
UniProt P43583: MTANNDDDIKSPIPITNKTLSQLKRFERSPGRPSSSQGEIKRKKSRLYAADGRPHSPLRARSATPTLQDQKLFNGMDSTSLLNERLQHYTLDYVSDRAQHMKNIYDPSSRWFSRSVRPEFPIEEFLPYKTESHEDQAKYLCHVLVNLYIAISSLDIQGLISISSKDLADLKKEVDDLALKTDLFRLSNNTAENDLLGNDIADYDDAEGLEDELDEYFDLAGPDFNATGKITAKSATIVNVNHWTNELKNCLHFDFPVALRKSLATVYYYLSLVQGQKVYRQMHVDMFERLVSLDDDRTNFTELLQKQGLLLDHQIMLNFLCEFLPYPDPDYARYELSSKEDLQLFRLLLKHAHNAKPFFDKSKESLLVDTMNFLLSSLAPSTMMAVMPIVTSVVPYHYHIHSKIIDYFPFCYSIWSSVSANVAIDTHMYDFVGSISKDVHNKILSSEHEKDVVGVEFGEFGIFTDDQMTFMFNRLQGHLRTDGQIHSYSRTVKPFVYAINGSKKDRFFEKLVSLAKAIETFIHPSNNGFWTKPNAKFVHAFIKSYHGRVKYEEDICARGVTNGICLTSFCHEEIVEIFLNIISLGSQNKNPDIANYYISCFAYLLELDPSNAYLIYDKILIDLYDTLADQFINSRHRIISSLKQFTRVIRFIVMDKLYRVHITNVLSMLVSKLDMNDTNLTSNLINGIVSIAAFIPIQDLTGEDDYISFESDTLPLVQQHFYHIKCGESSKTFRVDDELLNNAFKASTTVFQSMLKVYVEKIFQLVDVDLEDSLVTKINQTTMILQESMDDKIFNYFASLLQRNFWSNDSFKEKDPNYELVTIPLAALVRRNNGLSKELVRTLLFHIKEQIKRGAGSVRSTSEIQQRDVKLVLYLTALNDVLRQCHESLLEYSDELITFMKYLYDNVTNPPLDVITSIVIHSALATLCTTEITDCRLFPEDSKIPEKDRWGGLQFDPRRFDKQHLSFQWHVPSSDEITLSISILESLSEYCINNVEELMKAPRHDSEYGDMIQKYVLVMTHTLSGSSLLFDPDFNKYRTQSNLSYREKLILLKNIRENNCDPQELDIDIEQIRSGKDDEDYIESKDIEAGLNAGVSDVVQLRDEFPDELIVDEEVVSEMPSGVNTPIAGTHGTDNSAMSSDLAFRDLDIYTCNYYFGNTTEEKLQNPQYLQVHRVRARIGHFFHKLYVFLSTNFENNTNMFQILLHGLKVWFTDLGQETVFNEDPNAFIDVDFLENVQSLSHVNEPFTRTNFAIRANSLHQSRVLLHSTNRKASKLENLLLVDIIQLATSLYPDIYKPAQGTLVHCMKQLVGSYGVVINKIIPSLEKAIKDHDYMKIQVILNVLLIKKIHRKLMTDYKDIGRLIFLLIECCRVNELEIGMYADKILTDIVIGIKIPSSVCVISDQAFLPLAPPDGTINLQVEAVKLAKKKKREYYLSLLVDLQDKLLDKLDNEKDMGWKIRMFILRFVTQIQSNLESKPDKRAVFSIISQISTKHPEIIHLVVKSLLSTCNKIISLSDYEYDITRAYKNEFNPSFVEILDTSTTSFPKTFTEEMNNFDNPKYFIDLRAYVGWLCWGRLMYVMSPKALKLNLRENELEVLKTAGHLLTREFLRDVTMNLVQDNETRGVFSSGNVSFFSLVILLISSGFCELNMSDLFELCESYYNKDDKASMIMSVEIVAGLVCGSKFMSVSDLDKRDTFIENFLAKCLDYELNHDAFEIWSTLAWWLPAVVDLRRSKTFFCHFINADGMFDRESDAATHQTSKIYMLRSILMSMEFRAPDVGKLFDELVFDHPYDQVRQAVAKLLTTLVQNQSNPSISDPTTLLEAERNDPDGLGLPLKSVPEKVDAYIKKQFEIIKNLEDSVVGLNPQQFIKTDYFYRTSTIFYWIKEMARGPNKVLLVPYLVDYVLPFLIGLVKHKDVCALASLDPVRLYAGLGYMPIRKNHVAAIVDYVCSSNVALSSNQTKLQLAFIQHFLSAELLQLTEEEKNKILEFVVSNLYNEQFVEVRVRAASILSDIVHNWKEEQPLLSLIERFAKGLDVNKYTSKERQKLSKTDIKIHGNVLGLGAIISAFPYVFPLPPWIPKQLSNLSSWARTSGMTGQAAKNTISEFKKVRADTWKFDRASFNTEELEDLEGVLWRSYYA
UniProt P43588: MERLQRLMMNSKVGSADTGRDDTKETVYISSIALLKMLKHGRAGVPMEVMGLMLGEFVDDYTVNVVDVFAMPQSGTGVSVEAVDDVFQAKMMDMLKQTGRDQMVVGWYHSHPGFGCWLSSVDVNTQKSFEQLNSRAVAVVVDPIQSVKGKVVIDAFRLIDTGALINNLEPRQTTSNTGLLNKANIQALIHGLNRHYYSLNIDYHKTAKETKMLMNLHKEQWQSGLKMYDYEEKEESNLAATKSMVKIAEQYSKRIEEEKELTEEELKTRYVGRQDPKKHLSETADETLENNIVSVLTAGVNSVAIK
UniProt P29311: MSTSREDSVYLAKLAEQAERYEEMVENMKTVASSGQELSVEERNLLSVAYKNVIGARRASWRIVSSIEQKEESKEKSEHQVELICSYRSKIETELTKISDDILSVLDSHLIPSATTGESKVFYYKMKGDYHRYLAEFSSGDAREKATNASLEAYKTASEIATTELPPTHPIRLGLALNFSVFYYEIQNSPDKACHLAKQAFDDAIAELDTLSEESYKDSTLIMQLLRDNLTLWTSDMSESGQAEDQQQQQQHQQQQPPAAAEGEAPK
UniProt P34730: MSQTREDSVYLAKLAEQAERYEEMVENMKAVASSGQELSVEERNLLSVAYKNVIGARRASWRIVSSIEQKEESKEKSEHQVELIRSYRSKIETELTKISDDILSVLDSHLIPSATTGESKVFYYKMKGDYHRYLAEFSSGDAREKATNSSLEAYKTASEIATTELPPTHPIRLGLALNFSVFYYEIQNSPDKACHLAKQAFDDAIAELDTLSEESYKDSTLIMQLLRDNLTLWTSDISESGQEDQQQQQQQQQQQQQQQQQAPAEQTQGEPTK

What was measured:
[1] = target: 3x-Flag-tagged Blm10 (S. cerevisiae) (UniProt P43583); test: affinity purification with mass spectrometry
[2] = target: 6His-Rpn11 (S. cerevisiae) (UniProt P43588); test: affinity purification with mass spectrometry

Molecule	binding [1]	binding [2]
Bmh1 (from UniProt P29311 1-267)	binds	–
Bmh2 (from UniProt P34730 1-273)	binds	–
cyclin Cln2 (protein, UniProt P20438 1-545) MASAEPRPRMGLVINAKPDYYPIELSNAELLSHFEMLQEYHQEISTNVIAQSCKFKPNPKLIDQQPEMNPVETRSNIITFLFELSVVTRVTNGIFFHSVRLYDRYCSKRIVLRDQAKLVVATCLWLAAKTWGGCNHIINNVVIPTGGRFYGPNPRARIPRLSELVHYCGDGQVFDESMFLQMERHILDTLNWNIYEPMINDYVLNVDENCLMQYELYENQVTYDKQCSEKRQSQLSQDSDATVDERPYQNEEEEEEDLKLKIKLINLKKFLIDVSAWQYDLLRYELFEVSHGIFSIINQFTNQDHGPFLMTPMTSESKNGEILSTLMNGIVSIPNSLMEVYKTVNGVLPFINQVKEYHLDLQRKLQIASNLNISRKLTISTPSCSFENSNSTSIPSPASSSQSHTPMRNMSSLSDNSVFSRNMEQSSPITPSMYQFGQQQSNSICGSTVSVNSLVNTNNKQRIYEQITGPNSNNATNDYIDLLNLNESNKENQNPATAHYLNGGPPKTSFINHGMFPSPTGTINSGKSSSASSLISFGMGNTQVI	–	binds
